Measured values taken from the supplement of paper PMC10849652.
The list shows a part of the results.

Chains of the proteins cited; added tags and fusions are not shown. Lines headed by an entry give the natural chain unless they say otherwise; changes in a name come on top.
UniProt Q96EE3: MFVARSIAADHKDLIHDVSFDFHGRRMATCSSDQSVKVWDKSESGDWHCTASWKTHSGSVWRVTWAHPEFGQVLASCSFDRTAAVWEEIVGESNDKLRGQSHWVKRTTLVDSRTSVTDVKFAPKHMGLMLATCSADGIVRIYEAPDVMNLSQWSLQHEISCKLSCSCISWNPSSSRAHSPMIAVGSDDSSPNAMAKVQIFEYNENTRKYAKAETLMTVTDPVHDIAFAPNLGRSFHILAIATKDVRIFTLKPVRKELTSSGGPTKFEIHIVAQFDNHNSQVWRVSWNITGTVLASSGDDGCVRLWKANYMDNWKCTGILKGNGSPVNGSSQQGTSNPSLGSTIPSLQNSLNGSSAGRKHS
UniProt Q8TD22: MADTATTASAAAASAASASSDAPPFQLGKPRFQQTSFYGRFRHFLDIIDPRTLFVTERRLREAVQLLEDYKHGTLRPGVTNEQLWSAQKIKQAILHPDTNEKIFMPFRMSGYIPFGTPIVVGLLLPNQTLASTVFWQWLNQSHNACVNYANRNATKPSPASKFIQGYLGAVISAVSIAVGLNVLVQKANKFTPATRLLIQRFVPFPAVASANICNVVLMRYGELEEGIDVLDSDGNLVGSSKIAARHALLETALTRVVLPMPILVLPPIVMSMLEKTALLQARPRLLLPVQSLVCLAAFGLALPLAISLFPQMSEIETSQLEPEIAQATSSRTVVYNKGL
UniProt Q9HAT2: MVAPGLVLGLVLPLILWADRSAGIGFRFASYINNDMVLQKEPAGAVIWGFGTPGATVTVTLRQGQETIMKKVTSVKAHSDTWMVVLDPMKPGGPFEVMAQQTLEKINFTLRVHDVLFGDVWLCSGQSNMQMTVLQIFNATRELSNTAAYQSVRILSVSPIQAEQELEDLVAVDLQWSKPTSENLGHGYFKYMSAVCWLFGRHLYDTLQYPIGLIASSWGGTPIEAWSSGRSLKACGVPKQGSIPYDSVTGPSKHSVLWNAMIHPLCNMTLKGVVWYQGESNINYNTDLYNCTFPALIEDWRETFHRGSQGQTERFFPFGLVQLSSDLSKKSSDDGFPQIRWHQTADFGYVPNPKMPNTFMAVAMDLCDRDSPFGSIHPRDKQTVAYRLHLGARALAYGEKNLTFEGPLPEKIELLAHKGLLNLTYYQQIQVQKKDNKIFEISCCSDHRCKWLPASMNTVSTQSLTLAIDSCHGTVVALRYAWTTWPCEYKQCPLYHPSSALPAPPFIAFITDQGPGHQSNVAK
UniProt Q15637: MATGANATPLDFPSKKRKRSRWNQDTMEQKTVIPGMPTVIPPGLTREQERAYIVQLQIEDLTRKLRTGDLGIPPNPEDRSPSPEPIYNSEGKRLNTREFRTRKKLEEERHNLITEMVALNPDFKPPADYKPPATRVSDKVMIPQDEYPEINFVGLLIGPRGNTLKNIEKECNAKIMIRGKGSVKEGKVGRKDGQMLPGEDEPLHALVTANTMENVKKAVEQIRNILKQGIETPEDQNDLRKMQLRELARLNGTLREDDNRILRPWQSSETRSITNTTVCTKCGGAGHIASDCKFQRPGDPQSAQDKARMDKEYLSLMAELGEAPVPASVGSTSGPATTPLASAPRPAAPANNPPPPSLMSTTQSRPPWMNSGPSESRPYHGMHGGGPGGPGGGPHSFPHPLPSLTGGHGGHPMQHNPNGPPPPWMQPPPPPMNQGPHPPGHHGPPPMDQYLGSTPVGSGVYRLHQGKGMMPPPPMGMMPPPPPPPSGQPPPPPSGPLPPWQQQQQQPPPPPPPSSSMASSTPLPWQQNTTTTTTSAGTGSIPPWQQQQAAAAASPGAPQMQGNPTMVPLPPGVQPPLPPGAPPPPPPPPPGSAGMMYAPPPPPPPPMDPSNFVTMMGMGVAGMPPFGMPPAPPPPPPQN
UniProt Q9UGP8: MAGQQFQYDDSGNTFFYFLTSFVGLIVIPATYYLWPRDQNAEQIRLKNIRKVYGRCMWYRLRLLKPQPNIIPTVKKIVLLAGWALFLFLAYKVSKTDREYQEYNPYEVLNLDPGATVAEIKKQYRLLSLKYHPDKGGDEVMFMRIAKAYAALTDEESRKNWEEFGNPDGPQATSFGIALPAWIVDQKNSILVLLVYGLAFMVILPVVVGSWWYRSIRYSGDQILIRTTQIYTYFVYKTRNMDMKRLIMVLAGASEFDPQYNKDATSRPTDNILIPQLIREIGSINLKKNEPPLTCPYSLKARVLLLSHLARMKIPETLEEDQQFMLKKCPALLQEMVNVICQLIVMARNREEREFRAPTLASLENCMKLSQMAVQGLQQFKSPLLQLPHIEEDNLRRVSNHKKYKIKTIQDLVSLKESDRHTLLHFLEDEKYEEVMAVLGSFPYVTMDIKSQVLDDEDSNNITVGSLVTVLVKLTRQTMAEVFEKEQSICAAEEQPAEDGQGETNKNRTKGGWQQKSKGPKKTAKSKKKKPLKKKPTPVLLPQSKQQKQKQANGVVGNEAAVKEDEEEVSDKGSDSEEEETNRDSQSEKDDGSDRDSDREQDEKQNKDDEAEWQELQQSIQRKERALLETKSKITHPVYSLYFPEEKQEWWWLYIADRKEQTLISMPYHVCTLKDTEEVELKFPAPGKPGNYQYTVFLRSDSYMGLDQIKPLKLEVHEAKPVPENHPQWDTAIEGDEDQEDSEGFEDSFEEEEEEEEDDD
UniProt Q12872: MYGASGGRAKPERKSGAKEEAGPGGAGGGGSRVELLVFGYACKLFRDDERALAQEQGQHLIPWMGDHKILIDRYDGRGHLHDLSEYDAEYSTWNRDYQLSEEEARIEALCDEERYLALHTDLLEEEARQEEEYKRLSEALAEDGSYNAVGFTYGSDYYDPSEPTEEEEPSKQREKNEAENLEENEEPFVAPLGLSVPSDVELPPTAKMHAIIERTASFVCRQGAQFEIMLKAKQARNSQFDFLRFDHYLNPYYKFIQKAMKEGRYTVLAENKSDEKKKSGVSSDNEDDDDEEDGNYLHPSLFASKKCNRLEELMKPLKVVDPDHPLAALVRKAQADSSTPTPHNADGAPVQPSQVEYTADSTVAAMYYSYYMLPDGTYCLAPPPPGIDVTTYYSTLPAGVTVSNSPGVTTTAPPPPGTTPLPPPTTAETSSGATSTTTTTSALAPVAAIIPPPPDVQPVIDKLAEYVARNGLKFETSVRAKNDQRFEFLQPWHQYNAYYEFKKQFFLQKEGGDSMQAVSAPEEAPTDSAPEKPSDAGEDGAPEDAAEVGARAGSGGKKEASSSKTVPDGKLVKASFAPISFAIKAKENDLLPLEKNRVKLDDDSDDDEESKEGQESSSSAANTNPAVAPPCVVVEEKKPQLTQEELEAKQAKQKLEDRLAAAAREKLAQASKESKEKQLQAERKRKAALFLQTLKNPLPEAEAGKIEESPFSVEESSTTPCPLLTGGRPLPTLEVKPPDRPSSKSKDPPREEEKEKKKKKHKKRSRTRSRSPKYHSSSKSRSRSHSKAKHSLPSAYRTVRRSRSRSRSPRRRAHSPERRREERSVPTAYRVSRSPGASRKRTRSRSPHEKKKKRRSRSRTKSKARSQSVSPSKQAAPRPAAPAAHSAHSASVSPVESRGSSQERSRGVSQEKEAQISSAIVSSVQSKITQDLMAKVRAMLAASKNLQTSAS
UniProt Q15019: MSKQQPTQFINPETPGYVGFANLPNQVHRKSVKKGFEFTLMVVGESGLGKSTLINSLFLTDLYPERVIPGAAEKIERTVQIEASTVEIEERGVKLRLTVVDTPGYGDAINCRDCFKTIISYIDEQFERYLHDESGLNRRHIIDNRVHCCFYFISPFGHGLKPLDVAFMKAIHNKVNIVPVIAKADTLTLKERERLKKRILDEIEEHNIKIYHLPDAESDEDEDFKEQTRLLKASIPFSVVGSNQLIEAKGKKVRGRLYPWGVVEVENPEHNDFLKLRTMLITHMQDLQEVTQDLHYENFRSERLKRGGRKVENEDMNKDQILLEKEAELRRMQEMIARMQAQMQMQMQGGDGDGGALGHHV
UniProt P30740: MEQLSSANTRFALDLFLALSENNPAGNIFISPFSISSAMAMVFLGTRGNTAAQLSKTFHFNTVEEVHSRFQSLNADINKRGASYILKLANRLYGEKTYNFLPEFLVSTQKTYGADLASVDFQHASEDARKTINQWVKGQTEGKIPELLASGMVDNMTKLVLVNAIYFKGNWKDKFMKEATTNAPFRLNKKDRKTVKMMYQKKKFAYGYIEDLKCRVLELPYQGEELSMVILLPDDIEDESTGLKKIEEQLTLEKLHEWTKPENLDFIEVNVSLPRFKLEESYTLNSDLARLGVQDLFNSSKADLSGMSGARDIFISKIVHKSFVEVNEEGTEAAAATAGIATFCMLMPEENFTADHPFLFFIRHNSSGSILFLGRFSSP
UniProt P29353: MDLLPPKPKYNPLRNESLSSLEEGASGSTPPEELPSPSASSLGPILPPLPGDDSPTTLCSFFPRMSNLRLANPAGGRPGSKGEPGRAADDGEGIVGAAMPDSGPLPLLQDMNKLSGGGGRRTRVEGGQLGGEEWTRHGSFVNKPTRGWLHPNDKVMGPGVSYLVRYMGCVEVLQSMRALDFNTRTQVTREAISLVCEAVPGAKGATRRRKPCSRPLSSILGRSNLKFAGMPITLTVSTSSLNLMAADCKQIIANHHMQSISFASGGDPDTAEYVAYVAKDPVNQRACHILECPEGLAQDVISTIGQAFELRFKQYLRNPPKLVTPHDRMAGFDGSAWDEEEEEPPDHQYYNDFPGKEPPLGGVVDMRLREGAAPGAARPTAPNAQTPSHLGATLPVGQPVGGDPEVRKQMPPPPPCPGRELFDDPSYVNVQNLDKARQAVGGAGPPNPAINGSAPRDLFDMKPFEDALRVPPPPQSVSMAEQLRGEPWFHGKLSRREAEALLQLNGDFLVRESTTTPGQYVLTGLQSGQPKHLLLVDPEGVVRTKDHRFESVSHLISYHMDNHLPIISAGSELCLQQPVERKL
UniProt Q9H299: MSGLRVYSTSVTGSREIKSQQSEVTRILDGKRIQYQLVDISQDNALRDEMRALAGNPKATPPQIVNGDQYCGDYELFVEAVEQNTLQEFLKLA
UniProt Q53H47: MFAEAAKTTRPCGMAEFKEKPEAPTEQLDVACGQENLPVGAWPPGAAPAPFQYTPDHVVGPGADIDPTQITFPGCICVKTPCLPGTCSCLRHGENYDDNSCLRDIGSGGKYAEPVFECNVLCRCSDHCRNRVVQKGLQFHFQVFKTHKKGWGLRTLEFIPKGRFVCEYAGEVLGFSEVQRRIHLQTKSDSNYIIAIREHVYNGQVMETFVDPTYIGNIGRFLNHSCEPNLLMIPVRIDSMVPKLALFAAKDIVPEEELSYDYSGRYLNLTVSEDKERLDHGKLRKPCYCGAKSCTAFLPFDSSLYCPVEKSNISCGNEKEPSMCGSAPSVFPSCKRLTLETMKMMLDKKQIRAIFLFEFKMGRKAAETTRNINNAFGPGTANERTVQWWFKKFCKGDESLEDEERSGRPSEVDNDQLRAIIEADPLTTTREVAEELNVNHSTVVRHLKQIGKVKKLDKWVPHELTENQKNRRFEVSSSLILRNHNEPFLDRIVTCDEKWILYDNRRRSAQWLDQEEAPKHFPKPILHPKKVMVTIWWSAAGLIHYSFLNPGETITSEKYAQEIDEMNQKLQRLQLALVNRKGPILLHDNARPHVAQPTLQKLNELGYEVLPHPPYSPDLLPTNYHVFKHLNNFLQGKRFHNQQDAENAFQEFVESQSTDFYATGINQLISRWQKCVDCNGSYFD
UniProt Q9H9S3, whole entry, looked up: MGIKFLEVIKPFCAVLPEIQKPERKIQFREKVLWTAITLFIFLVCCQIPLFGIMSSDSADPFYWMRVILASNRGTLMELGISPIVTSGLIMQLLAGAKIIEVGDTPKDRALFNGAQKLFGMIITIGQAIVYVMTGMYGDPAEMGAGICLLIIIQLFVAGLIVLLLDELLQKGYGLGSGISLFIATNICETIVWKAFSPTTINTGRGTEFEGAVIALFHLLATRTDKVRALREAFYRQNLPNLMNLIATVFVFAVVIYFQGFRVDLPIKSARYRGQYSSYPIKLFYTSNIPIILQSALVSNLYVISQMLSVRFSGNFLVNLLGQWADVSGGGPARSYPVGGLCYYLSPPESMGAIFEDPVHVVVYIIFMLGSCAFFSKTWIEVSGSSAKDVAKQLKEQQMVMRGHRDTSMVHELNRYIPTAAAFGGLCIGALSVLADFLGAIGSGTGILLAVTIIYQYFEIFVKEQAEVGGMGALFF
UniProt Q6P4A7: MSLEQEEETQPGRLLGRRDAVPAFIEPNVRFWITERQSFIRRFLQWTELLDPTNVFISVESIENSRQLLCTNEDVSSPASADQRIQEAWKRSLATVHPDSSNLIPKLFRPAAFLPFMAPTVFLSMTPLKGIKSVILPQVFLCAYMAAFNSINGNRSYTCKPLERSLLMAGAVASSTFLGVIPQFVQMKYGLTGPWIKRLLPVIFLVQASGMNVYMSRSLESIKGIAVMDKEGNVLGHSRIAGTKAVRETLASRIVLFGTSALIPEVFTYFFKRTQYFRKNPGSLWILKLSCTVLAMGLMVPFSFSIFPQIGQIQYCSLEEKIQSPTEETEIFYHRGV

Columns and labels:
Assay in all cases: log2 fold change, soluble protein after heating vs DMSO (PISA); higher = thermal stabilisation; K562 cells, 10 uM, 30 min; active = over 0.2 and 3.5 SD of the protein, either way, in both replicates (recomputed)
erlotinib = compound: C#Cc1cccc(Nc2ncnc3cc(OCCOC)c(OCCOC)cc23)c1 [erlotinib]
Procedure, shortened: (§1)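 Quantification of soluble protein used TMTpro 16plex LC-MS/MS, with channel sums equalised. Samples were the supernatant after 21,000xg for 90 min of pooled aliquots from K562 cells (2×10^6 cells/mL) treated with 10 μM compound for 30 min, heated for 3 min over 48°C-58°C, and extracted in PBS with 0.5% NP-40 at 4°C. Values, from duplicates, describe thermal stability against control samples on a log2 fold-change scale.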

[1] = compound: C/C(=N\NC(=O)C1=CC(=CC=C1)S(=O)(=O)N2CCOCC2)/C3=C(C=CC(=C3)Cl)O
Procedure, shortened: as §1

[2] = compound: C1=CC(=C(C=C1Cl)C2=NC3=NC=CN=C3C(=N2)NC4=CC=NC=C4)F
Procedure, shortened: as §1

[3] = compound: C1=CC(=CC=C1C2=NC3=C(N2)C=C(C=C3)C(=O)N)OC4=CC=C(C=C4)Cl
Procedure, shortened: as §1

[4] = compound: C1=CC2=C(C=CC(=C2)/C=C\3/C(=O)NC(=NCC4=CC=CS4)S3)N=C1
Procedure, shortened: as §1

[5] = compound: C1=CC2=NC=CN=C2C=C1/C=C/3\C(=O)NC(=O)S3
Procedure, shortened: as §1

[6] = compound: C1=CC=C(C=C1)C2=NC(=C(N2)C3=CC=NC=C3)C4=CC(=C(C=C4)Cl)O
Procedure, shortened: as §1

[7] = compound: C1=CC=C2C(=C1)C3=NNC4=CC=CC(=C43)C2=O
Procedure, shortened: as §1

[8] = compound: C1CCN(C1)C(=O)NC2=CC=CC(=C2)NC3=NC=C(C(=N3)NCCC4=CN=CN4)Br
Procedure, shortened: as §1

[9] = compound: C1CN(CCC1(CC2=CC=C(C=C2)Cl)N)C3=NC=NC4=C3C=CN4
Procedure, shortened: as §1

Measured: log2 fold change

SEH1L isoform 1 (UniProt Q96EE3)
inactive: erlotinib 0.018 | [1] 0.073 | [2] 0.012 | [3] 0.043 | [4] 0.049 | [5] 0.064 | [6] 0 | [7] -0.06 | [8] -0.02 | [9] 0.035

SFXN1 (UniProt Q9H9B4)
inactive: erlotinib 0.017 | [1] 0.042 | [2] 0.095 | [3] -0.022 | [4] 0.003 | [5] 0.047 | [6] 0.064 | [7] -0.007 | [8] -0.038 | [9] 0.017

SFXN5 (UniProt Q8TD22)
inactive: erlotinib -0.077 | [1] 0.09 | [2] -0.02 | [3] 0.082 | [4] -0.003 | [5] 0.023 | [6] 0.081 | [7] -0.001 | [8] -0.066 | [9] -0.045

2 records picked at random from the list so far:
SFXN1 (UniProt Q9H9B4)
inactive: erlotinib 0.017 | [1] 0.042 | [2] 0.095 | [3] -0.022 | [4] 0.003 | [5] 0.047 | [6] 0.064 | [7] -0.007 | [8] -0.038 | [9] 0.017

SFXN5 (UniProt Q8TD22)
inactive: erlotinib -0.077 | [1] 0.09 | [2] -0.02 | [3] 0.082 | [4] -0.003 | [5] 0.023 | [6] 0.081 | [7] -0.001 | [8] -0.066 | [9] -0.045

(next part)

SIAE (UniProt Q9HAT2)
inactive: erlotinib 0.134 | [1] -0.051 | [2] 0.052 | [3] -0.125 | [4] 0.046 | [5] 0.078 | [6] -0.247 | [7] 0.004 | [8] 0.103 | [9] 0.003

SLAIN2 (UniProt Q9P270)
inactive: erlotinib 0.037 | [1] -0.006 | [2] -0.012 | [3] -0.02 | [4] 0.046 | [5] 0.095 | [6] 0.016 | [7] -0.08 | [8] -0.02 | [9] -0.047

SF1 isoform 5 (UniProt Q15637)
inactive: erlotinib 0.043 | [1] -0.006 | [2] 0.02 | [3] -0.002 | [4] -0.099 | [5] -0.012 | [6] 0.014 | [7] 0.026 | [8] -0.03 | [9] 0.062

SERPINI1 (UniProt Q99574)
inactive: erlotinib 0.022 | [1] -0.077 | [2] 0.042 | [3] -0.035 | [4] 0.077 | [5] 0.027 | [6] 0.017 | [7] 0.026 | [8] 0.002 | [9] 0.084

SEC63 (UniProt Q9UGP8)
inactive: erlotinib -0.014 | [1] 0.004 | [2] 0.024 | [3] -0.002 | [4] 0.005 | [5] 0.027 | [6] -0.002 | [7] -0.001 | [8] 0.012 | [9] 0

SFSWAP isoform 2 (UniProt Q12872)
inactive: erlotinib -0.023 | [1] 0.046 | [2] -0.078 | [3] -0.013 | [4] -0.046 | [5] 0.024 | [6] -0.079 | [7] -0.072 | [8] -0.069 | [9] -0.004

SGO1 (UniProt Q5FBB7)
inactive: erlotinib 0.028 | [1] -0.032 | [2] -0.073 | [3] -0.029 | [4] 0.011 | [5] 0.029 | [6] -0.044 | [7] -0.003 | [8] 0.007 | [9] 0.013

SH3BP5 (UniProt O60239)
inactive: erlotinib -0.032 | [1] 0 | [2] 0.083 | [3] -0.045 | [4] 0.052 | [5] 0.108 | [6] -0.031 | [7] -0.088 | [8] -0.005 | [9] 0.096

SEPTIN2 isoform 2 (UniProt Q15019)
inactive: erlotinib 0.01 | [1] -0.017 | [2] 0.008 | [3] -0.005 | [4] 0.002 | [5] 0.022 | [6] -0.019 | [7] 0.003 | [8] -0.002 | [9] 0.043

SHMT1 (UniProt P34896)
inactive: erlotinib 0.028 | [1] 0.012 | [2] 0.074 | [3] 0.042 | [4] 0.026 | [5] 0.009 | [6] 0.034 | [7] -0.001 | [8] -0.03 | [9] 0.068

SERPINB1 (UniProt P30740)
inactive: erlotinib 0.015 | [1] 0.043 | [2] 0.038 | [3] -0.005 | [4] 0.007 | [5] -0.004 | [6] 0.013 | [7] 0.016 | [8] -0.005 | [9] 0.018

SHC1 isoform 6 (UniProt P29353)
inactive: erlotinib 0.029 | [1] -0.006 | [2] -0.011 | [3] 0.012 | [4] 0.04 | [5] 0.012 | [6] 0.001 | [7] -0.034 | [8] -0.022 | [9] 0.003

SERINC3 (UniProt Q13530)
inactive: erlotinib -0.051 | [1] 0.016 | [2] -0.064 | [3] 0.041 | [4] -0.043 | [5] 0.063 | [6] 0.006 | [7] 0.029 | [8] 0.007 | [9] 0.06

SESN2 (UniProt P58004)
inactive: erlotinib 0.154 | [1] 0.108 | [2] -0.039 | [3] -0.003 | [4] 0.016 | [5] 0.007 | [6] -0.009 | [7] -0.008 | [8] -0.041 | [9] -0.109

SF1 isoform 6 (UniProt Q15637)
inactive: erlotinib 0.067 | [1] 0.036 | [2] -0.128 | [3] 0 | [4] 0.033 | [5] -0.129 | [6] 0.068 | [7] -0.023 | [8] -0.054 | [9] 0.044

SH3BGRL3 (UniProt Q9H299)
inactive: erlotinib -0.012 | [1] 0.037 | [2] 0.089 | [3] 0.02 | [4] 0.057 | [5] 0.015 | [6] -0.031 | [7] -0.022 | [8] -0.045 | [9] 0.021

SETMAR (UniProt Q53H47)
inactive: erlotinib 0.004 | [1] -0.044 | [2] 0.046 | [3] -0.018 | [4] 0.133 | [5] -0.029 | [6] -0.01 | [7] 0.008 | [8] -0.031 | [9] -0.248

SEC61A2 (UniProt Q9H9S3)
inactive: erlotinib -0.013 | [1] 0.015 | [2] 0.054 | [3] -0.023 | [4] -0.004 | [5] 0.059 | [6] -0.012 | [7] 0.009 | [8] 0.005 | [9] 0.07

SERPINB9 (UniProt P50453)
inactive: erlotinib -0.025 | [1] 0.027 | [2] 0.072 | [3] 0.026 | [4] -0.02 | [5] -0.021 | [6] 0.037 | [7] 0.005 | [8] -0.01 | [9] 0.052

SGTA (UniProt O43765)
inactive: erlotinib -0.069 | [1] 0.014 | [2] 0.068 | [3] 0.025 | [4] 0.007 | [5] 0.045 | [6] 0.02 | [7] 0.011 | [8] -0.008 | [9] -0.009

SELENOF (UniProt O60613)
inactive: erlotinib -0.017 | [1] -0.044 | [2] -0.023 | [3] 0.034 | [4] -0.007 | [5] 0.018 | [6] -0.011 | [7] 0.037 | [8] -0.039 | [9] 0.026

SFXN4 (UniProt Q6P4A7)
inactive: erlotinib -0.027 | [1] -0.02 | [2] 0.015 | [3] -0.022 | [4] 0.098 | [5] 0.029 | [6] 0.014 | [7] 0.017 | [8] 0.008 | [9] 0.071

SHROOM1 (UniProt Q2M3G4)
inactive: erlotinib 0.044 | [1] 0.255 | [2] 0.115 | [3] -0.023 | [4] -0.255 | [5] 0.2 | [6] -0.139 | [7] 0.105

SERPINA7 (UniProt P05543)
inactive: erlotinib -0.118 | [1] -0.1 | [2] -0.024 | [3] 0.091 | [4] 0.15 | [5] -0.111 | [6] -0.004 | [7] -0.072 | [8] 0.164 | [9] 0.272
